Assay results as given in patent publication US9126994B2, “Crystalline form of a quinolinone-carboxamide compound” (Theravance Biopharma R&D IP, LLC, priority 2005, dated 2015).

The chains behind the UniProt entries cited, without tags or fusion partners. Where a name states a change or a piece, a line headed by the entry shows the natural chain unless it says otherwise.
UniProt Q12809: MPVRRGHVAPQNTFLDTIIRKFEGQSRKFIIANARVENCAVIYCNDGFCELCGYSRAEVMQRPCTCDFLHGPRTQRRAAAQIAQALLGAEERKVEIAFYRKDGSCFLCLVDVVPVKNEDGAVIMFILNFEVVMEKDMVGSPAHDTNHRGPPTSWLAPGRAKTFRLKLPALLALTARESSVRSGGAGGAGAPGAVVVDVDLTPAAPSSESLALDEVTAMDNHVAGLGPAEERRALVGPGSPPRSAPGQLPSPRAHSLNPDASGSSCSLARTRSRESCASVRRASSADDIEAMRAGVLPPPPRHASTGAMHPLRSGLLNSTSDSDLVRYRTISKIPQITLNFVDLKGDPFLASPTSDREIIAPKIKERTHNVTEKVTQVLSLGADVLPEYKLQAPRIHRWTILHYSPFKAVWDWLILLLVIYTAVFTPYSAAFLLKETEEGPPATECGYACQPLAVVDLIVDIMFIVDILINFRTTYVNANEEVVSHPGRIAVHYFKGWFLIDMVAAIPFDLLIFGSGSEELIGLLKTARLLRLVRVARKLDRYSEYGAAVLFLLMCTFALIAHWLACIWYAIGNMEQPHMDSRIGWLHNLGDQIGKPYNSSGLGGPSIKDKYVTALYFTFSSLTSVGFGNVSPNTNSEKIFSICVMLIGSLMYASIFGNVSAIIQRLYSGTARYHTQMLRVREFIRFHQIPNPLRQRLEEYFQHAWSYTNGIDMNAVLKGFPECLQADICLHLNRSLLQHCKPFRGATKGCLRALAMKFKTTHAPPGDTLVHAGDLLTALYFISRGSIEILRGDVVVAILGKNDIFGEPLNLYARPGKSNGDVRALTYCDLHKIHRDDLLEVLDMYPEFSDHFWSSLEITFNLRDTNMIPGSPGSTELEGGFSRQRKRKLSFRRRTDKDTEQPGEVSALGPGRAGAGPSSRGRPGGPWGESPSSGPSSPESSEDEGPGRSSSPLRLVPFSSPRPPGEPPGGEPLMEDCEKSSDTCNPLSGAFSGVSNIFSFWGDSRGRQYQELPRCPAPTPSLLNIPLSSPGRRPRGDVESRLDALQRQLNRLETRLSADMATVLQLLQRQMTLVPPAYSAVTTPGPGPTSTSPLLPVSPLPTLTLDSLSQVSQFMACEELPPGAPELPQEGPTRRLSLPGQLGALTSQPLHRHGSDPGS

Key:
[1] = male Sprague-Dawley rats; blood plasma; dosing PO 5 mg/kg (IV 2.5 mg/kg), route not restated at the value
Experimental: Assay 6: Pharmacokinetic Study in the Rat
Aqueous solution formulations of test compounds were prepared in 0.1% lactic acid at a pH of between about 5 and about 6. Male Sprague-Dawley rats (CD strain, Charles River Laboratories, Wilmington, Mass.) were dosed with test compounds via intravenous administration (IV) at a dose of 2.5 mg/kg or by oral gavage (PO) at a dose of 5 mg/kg. The dosing volume was 1 mL/kg for IV and 2 mL/kg for PO administration. Serial blood samples were collected from animals pre-dose, and at 2 (IV only), 5, 15, and 30 min, and at 1, 2, 4, 8, and 24 hours post-dose.
Standard pharmacokinetic parameters were assessed by non-compartmental analysis (Model 201 for IV and Model 200 for PO) using WinNonlin (Version 4.0.1, Pharsight, Mountain View, Calif.). The maximum in the curve of test compound concentration in blood plasma vs. time is denoted Cmax.

Caco-2 cell monolayer = details: human, Caco-2, 1 h
[2] = molecular target: hERG cardiac potassium channel (Homo sapiens, UniProt Q12809); test: in vitro; details: pH 7.4

**Q.** Which “AUC(0−t)” value [1] does the source give for `CC(C)n1c(=O)c(C(=O)N[C@H]2C[C@H]3CC[C@@H](C2)N3C[C@@H](O)CN(C)S(C)(=O)=O)cc2ccccc21` [compound of formula I, 1-isopropyl-2-oxo-1,2-dihydroquinoline-3-carboxylic acid {(1S,3R,5R)-8-[(R)-2-hydroxy-3-(methanesulfonyl-methyl-amino)propyl]-8-azabicyclo[3.2.1]oct-3-yl}amide] here?
**A.** 0.46 µg·h/mL

**Q.** And the “permeation coefficient Kp” value (Caco-2 cell monolayer)?
**A.** greater than 20×10^−6 cm/sec

**Q.** And the inhibition at 3 µM [2]?
**A.** < 15%
